The source of these data is paper PMC6116164.

These are yes or no findings as the source states them, for the method shown. For some assays here: Binding seen in cells or lysates may run through a third protein. Some results given as binding are weak or reduced against the parent protein; the word gives no strength. Where a sequence is shown, tags or fusion partners need not be part of it.

The target of experiment [1] is T1, ATH1-BD (Arabidopsis Thaliana Homeobox fused to the DNA binding domain) (Arabidopsis thaliana) (UniProt P48731).
T1 sequence: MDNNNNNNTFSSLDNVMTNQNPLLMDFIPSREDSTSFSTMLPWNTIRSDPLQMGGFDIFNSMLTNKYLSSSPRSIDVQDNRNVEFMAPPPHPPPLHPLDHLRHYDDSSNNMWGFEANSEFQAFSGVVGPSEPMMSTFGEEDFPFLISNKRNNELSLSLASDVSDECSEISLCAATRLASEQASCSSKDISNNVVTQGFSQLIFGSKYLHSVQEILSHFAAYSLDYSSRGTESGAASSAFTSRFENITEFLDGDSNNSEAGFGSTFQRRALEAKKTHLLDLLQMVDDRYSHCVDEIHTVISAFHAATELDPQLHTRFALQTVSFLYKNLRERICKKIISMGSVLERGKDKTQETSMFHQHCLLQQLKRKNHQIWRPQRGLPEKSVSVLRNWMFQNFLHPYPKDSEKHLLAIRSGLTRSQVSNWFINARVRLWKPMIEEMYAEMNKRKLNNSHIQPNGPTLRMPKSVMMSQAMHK
Briefly: two-hybrid; BD fusions of ATH1 or its HD or SKY-BELL domain co-expressed with AD-OFP1 in yeast Y2HGold; growth on SD QDO (-Leu, -His, -Trp, -Ade) after selection on SD DDO (-Trp, -Leu); three replicates.

The target in experiment [2] is T2, ATH1-YFPN (ATH1 fused to the N-terminal fragment of yellow fluorescent protein) (Arabidopsis thaliana) (UniProt P48731).
T2 sequence: T1 sequence
Briefly: split reporter; BiFC: YFPC and YFPN fusions co-expressed in Arabidopsis thaliana protoplasts after polyethylene glycol transfection; yellow fluorescence read by confocal microscopy.

B1: OFP1-AD (Ovate Family Protein1 fused to the activation domain) (protein, UniProt Q9LZW2 1-270)
chain: MGNNYRFKLSELIPNAWFYKLRDMSKSKKKNLQSQPNSTTSKKKHHAVPTPTSTTPLSPRPPRRPSHSSKAPPSHPPRKSSGNRLRHRATVDSKSSTTSGDSTTTETGSFSPDFRSDQVLLPDESLTGSWHSPCSSKLSKTATFTPPPELELRPIITKTAATARKTAVNSPAGVRLRMRSPRISVSSSARRSGSSARRSRAVVKASVDPKRDFKESMEEMIAENKIRATKDLEELLACYLCLNSDEYHAIIINVFKQIWLDLNLPPPHSK
B1: the binding result in experiment [1] is recorded as “binds”.

B2: OFP1-YFPC (OFP1 fused to the C-terminal fragment of yellow fluorescent protein) (protein, UniProt Q9LZW2 1-270)
chain: B1 chain
With B2, the binding result in experiment [2] is on record as “binds”.
